These are yes or no findings as the source states them, for the method shown. For part of these data: Binding seen in cells or lysates may run through a third protein. Some results given as binding are weak or reduced against the parent protein; the word gives no strength. Tags and fused reporters may be left off the sequences shown.

Test [1] has as its target T1, GUN4-nLUC (Arabidopsis thaliana) (UniProt Q9LX31).
T1 sequence: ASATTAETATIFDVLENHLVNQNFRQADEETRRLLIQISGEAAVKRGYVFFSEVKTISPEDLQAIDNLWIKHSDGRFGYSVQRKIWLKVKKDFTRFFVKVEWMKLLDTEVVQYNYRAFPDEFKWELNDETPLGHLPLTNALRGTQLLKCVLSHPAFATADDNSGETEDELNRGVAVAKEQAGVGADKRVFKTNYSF
Briefly: split reporter; bimolecular luciferase complementation (BiLC); nLUC and cLUC fusions co-injected with Agrobacterium GV3101 into tobacco leaves, luciferase signal read with a CCD imager three days later.

For test [2], the target named is T2, GENOME UNCOUPLED 4 (GUN4), Gal4 BD fusion (Arabidopsis thaliana) (UniProt Q9LX31).
T2 sequence: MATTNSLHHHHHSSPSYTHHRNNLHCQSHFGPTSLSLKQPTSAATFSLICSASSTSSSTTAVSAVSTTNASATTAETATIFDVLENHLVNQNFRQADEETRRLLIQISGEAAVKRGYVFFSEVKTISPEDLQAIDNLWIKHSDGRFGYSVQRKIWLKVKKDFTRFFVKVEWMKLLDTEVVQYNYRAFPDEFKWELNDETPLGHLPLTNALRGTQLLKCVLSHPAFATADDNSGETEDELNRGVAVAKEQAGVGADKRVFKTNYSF
The experiment in a line: two-hybrid; Gal4 system in yeast Y2H Gold; positive when colonies turned blue on SD/-Trp/-Leu/-Ade/-His/x-α-Gal plates.

For the molecule SRP43-cLUC (from UniProt O22265 57-373), in test [1], the binding entry is “binds”.

B1: SRP54-cLUC (protein, UniProt P37107 76-564)
chain: EMFGQLTGGLEAAWSKLKGEEVLTKDNIAEPMRDIRRALLEADVSLPVVRRFVQSVSDQAVGMGVIRGVKPDQQLVKIVHDELVKLMGGEVSELQFAKSGPTVILLAGLQGVGKTTVCAKLACYLKKQGKSCMLIAGDVYRPAAIDQLVILGEQVGVPVYTAGTDVKPADIAKQGLKEAKKNNVDVVIMDTAGRLQIDKGMMDELKDVKKFLNPTEVLLVVDAMTGQEAAALVTTFNVEIGITGAILTKLDGDSRGGAALSVKEVSGKPIKLVGRGERMEDLEPFYPDRMAGRILGMGDVLSFVEKATEVMRQEDAEDLQKKIMSAKFDFNDFLKQTRAVAKMGSMTRVLGMIPGMGKVSPAQIREAEKNLLVMEAMIEVMTPEERERPELLAESPERRKRIAKDSGKTEQQVSALVAQIFQMRVKMKNLMGVMEGGSIPALSGLEDALKAEQKAPPGTARRKRKADSRKKFVESASSKPGPRGFGSGN
Regarding B1, the binding entry in test [1] is listed as “binds”.

B2: SIGNAL RECOGNITION PARTICLE 54 KDA SUBUNIT (SRP54), Gal4 AD fusion (protein, UniProt P37107 1-564)
chain: MEALQFSSVNRVPCTLSCTGNRRIKAAFSSAFTGGTINSASLSSSRNLSTREIWSWVKSKTVVGHGRYRRSQVRAEMFGQLTGGLEAAWSKLKGEEVLTKDNIAEPMRDIRRALLEADVSLPVVRRFVQSVSDQAVGMGVIRGVKPDQQLVKIVHDELVKLMGGEVSELQFAKSGPTVILLAGLQGVGKTTVCAKLACYLKKQGKSCMLIAGDVYRPAAIDQLVILGEQVGVPVYTAGTDVKPADIAKQGLKEAKKNNVDVVIMDTAGRLQIDKGMMDELKDVKKFLNPTEVLLVVDAMTGQEAAALVTTFNVEIGITGAILTKLDGDSRGGAALSVKEVSGKPIKLVGRGERMEDLEPFYPDRMAGRILGMGDVLSFVEKATEVMRQEDAEDLQKKIMSAKFDFNDFLKQTRAVAKMGSMTRVLGMIPGMGKVSPAQIREAEKNLLVMEAMIEVMTPEERERPELLAESPERRKRIAKDSGKTEQQVSALVAQIFQMRVKMKNLMGVMEGGSIPALSGLEDALKAEQKAPPGTARRKRKADSRKKFVESASSKPGPRGFGSGN
As to B2, the binding result in test [2] is on record as “binds”.
